Reference: article PMC10997846

By UniProt entry, the sequences of proteins in these tests, tags left out.
UniProt O60262: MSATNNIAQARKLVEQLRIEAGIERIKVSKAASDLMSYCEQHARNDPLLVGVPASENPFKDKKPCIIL

Target: T1, R-spondin 3 (human (endogenous in AGS or MKN45 gastric cancer cells)) (UniProt Q9BXY4)
T1 sequence: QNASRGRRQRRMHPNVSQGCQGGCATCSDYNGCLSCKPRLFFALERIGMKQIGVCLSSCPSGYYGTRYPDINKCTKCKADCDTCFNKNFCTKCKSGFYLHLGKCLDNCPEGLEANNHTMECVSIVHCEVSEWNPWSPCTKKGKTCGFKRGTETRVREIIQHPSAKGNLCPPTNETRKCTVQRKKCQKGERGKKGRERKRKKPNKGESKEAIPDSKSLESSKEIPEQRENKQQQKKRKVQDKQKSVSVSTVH
Test: affinity purification with mass spectrometry; 200 ug cellular lysate precleared with rabbit IgG and Protein A + G Agarose, incubated with 20 ug anti-RSPO3 antibody at 4°C for 12 h, captured on Protein A + G Agarose; SDS-PAGE, in-gel trypsin digestion, LC-MS/MS

G protein subunit gamma 7 (from UniProt O60262 1-68)
binding: binds

These are yes or no findings as the source states them, for the method shown. In cells and extracts the contact can be indirect. Here binding means that the protein was enriched with, or labelled near, the bait; the list need not be complete.
